From article doi:10.1101/2021.05.26.443198
Results are given in words; binding and its absence hold for the method and conditions named. In cells and extracts the contact can be indirect. Some results given as binding are weak or reduced against the parent protein; the word gives no strength.

How the values were obtained:
[1] = molecular target: STAT3 (human (in human breast cancer cells)), P40763; test: co-IP; settings: remark: other sources report otherwise
[2] = molecular target: STAT3 (human (in human breast cancer cells)), P40763; test: proximity ligation; settings: remark: other sources report otherwise

binding [1]: binds
binding [2]: binds
B1: LMO2, P25791 1-158 (protein)
chain: MSSAIERKSLDPSEEPVDEVLQIPPSLLTCGGCQQNIGDRYFLKAIDQYWHEDCLSCDLCGCRLGEVGRRLYYKLGRKLCRRDYLRLFGQDGLCASCDKRIRAYEMTMRVKDKVYHLECFKCAACQKHFCVGDRYLLINSDIVCEQDIYEWTKINGMI
